± gives the standard deviation of the averaged measurements. The entries are a selection whose mix differs from that of the whole data set. Most entries show no effect beyond the scatter of the controls.
Compound: Nc1ncnc2c1ncn2[C@@H]1O[C@H](COP(=O)(O)OP(=O)(O)NP(=O)(O)O)[C@@H](O)[C@H]1O [adenylyl imidodiphosphate]
Assay: NP40-soluble protein abundance relative to vehicle (solubility fold change) (ratio); higher = more soluble protein in presence of AMP-PNP
How it was run: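 In three independent experiments, Jurkat crude lysate made by Dounce homogenisation was treated for 10 min at room temperature and then 3 min at 37 °C with eight concentrations ranging from 0.1 to 10 mM. It was then solubilised with 0.8% NP40 plus benzonase for 60 min at 4 °C and ultracentrifuged. The supernatant was TMT-labelled for LC-MS/MS, and each value is the fold change against the detergent-processed vehicle for the same replicate, using vsn-normalised intensities.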

Chains of the proteins cited; added tags and fusions are not shown. Lines headed by an entry give the natural chain unless they say otherwise; changes in a name come on top.
UniProt Q6UWP2: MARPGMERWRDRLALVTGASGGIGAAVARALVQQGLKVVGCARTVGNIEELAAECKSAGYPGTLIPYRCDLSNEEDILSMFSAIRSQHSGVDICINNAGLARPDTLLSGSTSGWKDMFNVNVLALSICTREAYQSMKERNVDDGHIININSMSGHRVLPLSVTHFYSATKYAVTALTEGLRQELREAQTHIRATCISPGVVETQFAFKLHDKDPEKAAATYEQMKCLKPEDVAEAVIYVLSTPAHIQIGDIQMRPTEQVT
UniProt Q7Z2T5: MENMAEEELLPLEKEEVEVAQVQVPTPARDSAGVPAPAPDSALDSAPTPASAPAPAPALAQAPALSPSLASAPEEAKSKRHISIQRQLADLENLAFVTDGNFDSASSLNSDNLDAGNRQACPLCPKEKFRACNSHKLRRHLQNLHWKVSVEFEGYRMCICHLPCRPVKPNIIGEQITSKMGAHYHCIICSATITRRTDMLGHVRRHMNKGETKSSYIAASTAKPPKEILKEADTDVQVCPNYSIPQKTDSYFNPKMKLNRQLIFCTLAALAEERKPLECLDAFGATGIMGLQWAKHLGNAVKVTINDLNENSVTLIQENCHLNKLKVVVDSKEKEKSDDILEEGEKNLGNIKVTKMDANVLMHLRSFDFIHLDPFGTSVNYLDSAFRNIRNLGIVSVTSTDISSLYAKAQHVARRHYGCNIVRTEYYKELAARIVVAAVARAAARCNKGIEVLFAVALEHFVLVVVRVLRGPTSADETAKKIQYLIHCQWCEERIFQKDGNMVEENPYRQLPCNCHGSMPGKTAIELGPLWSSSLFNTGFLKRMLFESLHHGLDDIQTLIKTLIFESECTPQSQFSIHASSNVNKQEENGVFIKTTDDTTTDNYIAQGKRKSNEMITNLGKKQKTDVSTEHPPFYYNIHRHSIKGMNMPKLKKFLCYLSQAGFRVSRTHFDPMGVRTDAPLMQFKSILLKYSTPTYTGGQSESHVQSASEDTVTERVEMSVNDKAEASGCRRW
UniProt Q6NS38: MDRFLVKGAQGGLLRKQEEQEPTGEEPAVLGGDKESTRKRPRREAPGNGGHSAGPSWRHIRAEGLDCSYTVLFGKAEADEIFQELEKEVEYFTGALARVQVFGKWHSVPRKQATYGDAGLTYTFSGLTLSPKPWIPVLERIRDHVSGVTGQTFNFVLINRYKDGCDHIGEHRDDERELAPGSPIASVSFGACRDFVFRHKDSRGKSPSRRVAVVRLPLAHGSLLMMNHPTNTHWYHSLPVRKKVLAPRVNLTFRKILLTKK
UniProt Q6GYQ0: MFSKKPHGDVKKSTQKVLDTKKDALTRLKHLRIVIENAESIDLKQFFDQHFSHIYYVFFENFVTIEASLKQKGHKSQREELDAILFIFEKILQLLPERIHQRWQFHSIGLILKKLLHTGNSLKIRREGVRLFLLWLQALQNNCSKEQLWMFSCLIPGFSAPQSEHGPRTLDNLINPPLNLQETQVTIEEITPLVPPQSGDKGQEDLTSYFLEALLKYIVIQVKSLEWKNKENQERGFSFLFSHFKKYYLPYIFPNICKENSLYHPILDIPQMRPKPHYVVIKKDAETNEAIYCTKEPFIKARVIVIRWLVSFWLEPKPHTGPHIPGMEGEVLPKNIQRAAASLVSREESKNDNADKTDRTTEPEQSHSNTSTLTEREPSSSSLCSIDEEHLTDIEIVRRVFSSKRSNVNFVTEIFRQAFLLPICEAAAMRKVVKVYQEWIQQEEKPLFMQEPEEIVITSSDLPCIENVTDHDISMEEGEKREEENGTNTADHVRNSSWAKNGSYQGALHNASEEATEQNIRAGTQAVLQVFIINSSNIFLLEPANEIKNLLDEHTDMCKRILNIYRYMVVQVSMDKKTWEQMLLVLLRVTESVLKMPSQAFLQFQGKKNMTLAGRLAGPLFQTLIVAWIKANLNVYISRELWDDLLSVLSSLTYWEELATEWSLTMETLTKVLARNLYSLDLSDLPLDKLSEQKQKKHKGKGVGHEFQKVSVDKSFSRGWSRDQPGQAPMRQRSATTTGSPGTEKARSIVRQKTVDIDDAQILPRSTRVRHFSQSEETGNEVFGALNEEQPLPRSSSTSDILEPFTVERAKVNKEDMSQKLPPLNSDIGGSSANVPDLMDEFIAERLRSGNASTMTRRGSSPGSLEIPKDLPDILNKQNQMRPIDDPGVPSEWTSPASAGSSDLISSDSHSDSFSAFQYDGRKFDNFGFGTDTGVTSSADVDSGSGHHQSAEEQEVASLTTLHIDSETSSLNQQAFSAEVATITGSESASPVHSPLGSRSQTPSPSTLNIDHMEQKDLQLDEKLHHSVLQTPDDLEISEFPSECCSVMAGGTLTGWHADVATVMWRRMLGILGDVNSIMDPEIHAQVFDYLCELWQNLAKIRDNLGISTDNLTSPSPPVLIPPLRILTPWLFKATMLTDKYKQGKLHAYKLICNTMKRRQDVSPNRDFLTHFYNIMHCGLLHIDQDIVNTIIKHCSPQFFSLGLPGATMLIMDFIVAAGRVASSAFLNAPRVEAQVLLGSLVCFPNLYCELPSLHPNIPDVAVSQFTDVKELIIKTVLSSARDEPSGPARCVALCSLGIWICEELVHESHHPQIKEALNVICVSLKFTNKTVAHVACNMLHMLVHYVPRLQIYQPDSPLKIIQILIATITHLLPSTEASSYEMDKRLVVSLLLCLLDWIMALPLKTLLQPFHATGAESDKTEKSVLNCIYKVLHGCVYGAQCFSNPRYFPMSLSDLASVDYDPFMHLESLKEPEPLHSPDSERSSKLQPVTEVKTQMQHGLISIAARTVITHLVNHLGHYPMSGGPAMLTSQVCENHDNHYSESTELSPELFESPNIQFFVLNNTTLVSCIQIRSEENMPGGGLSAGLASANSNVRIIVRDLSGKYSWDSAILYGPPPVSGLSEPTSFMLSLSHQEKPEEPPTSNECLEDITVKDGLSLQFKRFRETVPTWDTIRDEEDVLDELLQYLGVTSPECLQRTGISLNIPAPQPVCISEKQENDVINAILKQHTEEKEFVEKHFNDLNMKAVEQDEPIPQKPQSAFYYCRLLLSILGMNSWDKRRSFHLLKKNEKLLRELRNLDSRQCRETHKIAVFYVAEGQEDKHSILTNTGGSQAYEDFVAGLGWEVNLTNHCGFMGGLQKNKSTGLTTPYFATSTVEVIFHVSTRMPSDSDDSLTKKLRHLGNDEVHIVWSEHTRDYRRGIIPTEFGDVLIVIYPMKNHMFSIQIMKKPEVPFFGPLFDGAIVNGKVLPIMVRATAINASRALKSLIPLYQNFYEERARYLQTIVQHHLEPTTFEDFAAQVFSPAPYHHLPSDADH
UniProt Q6UWP7: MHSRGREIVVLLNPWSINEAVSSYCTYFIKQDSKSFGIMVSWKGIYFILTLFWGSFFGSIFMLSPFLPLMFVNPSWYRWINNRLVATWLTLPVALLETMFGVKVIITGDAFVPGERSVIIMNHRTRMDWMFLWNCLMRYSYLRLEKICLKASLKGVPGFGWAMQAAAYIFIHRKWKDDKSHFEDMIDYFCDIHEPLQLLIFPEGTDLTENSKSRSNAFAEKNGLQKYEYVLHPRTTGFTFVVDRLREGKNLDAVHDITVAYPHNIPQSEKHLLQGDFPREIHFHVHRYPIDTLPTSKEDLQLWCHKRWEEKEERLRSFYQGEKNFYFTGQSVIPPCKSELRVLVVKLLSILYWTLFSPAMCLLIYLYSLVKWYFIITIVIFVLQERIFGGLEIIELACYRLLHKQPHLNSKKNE
UniProt Q641Q2, whole entry: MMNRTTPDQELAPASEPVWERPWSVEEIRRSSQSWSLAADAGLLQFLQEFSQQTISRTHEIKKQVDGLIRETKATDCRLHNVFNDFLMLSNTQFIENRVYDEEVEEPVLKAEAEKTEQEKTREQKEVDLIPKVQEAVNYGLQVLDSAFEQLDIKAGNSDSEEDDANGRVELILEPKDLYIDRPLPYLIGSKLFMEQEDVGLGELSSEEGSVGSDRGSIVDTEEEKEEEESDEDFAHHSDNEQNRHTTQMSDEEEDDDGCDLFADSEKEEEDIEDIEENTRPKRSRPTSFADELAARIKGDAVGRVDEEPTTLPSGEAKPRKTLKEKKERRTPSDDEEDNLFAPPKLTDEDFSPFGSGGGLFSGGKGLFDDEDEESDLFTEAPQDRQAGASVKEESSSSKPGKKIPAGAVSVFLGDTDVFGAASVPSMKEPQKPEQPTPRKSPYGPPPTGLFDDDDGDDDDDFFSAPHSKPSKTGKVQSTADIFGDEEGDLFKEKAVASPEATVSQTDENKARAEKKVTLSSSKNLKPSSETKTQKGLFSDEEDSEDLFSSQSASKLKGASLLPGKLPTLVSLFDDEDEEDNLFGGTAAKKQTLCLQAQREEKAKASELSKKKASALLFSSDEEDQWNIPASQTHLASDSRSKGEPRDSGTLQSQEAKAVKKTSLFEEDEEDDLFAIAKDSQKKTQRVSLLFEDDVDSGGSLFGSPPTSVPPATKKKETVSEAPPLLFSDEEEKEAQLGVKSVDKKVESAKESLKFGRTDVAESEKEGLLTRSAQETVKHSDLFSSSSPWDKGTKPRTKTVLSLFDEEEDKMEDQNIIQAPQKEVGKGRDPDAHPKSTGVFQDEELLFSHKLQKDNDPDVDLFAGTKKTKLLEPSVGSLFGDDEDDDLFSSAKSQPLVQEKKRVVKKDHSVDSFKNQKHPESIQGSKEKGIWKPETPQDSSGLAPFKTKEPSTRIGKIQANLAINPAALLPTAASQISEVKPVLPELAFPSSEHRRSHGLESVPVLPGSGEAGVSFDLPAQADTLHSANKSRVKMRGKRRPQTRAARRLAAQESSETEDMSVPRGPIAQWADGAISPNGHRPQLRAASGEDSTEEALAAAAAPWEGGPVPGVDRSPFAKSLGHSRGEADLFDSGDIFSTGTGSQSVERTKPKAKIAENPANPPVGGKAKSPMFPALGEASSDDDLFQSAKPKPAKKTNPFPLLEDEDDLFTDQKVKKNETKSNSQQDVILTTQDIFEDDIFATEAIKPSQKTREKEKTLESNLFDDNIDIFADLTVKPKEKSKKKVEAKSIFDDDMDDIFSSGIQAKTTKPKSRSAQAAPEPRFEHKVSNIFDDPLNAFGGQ
UniProt Q6QNY1: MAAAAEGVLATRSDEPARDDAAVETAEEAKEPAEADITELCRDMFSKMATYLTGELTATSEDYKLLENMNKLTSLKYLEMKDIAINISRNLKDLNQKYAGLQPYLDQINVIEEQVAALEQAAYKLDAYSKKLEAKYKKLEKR
UniProt Q6P1M0: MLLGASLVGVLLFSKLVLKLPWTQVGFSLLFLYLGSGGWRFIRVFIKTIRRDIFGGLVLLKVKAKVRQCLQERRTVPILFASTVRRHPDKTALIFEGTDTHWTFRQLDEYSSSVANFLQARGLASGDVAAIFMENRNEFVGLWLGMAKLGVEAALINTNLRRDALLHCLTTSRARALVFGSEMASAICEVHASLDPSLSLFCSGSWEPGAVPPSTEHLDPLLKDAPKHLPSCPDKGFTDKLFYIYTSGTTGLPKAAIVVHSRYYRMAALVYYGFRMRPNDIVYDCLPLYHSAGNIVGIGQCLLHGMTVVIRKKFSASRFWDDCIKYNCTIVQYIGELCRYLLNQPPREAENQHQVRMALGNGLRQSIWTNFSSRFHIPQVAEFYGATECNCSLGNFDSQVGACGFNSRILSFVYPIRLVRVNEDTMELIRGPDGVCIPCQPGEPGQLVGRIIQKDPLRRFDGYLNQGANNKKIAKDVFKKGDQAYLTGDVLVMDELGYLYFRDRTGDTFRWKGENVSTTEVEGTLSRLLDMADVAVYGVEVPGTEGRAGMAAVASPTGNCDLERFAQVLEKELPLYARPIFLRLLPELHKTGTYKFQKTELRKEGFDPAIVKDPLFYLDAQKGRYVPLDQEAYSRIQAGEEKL
UniProt Q6SJ93: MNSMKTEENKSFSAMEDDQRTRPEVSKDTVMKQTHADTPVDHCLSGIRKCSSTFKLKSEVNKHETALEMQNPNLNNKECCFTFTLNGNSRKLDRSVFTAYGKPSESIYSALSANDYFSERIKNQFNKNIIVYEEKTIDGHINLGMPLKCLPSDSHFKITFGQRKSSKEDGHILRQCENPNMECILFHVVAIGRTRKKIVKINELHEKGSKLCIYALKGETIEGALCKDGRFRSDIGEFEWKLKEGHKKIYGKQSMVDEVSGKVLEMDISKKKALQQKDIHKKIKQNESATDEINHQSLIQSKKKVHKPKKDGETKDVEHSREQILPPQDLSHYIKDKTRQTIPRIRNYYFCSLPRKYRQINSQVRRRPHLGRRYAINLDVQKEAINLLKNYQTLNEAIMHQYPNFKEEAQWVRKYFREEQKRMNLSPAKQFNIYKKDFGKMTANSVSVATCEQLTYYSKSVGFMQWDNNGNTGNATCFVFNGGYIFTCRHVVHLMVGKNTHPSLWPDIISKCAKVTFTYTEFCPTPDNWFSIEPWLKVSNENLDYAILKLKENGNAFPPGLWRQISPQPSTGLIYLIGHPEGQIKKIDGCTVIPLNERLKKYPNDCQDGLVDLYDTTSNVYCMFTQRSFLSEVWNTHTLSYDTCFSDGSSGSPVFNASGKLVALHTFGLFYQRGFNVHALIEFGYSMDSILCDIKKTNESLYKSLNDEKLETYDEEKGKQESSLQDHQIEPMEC

Target	NP40-soluble protein abundance (concentration: 0.1mM)	NP40-soluble protein abundance (concentration: 0.5mM)
RETSAT (UniProt Q6NUM9)	0.9902 ± 0.0062	0.986 ± 0.035
EEPD1 (UniProt Q7L9B9)	0.989 ± 0.034	0.973 ± 0.05
TAF3 (UniProt Q5VWG9)	1.01 ± 0.044	1.01 ± 0.033
UniProt Q7KYR7 and related entries	0.984 ± 0.024	0.989 ± 0.038
UniProt Q6P9B6	1.02 ± 0.047	1.017 ± 0.0066
SDHAF4 (UniProt Q5VUM1)	0.985 ± 0.028	0.9811 ± 0.0076
DHRS11 (UniProt Q6UWP2)	1.01 ± 0.016	1.01 ± 0.022
UniProt Q659A1	0.999 ± 0.012	1.01 ± 0.037
UniProt Q7Z2T5	1.02 ± 0.03	1.02 ± 0.029
UniProt Q69YN4	1.01 ± 0.029	1 ± 0.06
SND1 (UniProt Q7KZF4)	0.99239 ± 0.00061	1.01 ± 0.019
DUS1L (UniProt Q6P1R4)	1 ± 0.042	1.02 ± 0.04
UniProt Q68CQ4	1.03 ± 0.031	1.02 ± 0.041
UniProt Q6ULP2 and related entries	0.972 ± 0.022	0.977 ± 0.043
UniProt Q6P4R8 and related entries	1.03 ± 0.077	1.02 ± 0.058
UniProt Q6NS38 and related entries	0.981 ± 0.0085	1.02 ± 0.037
UniProt Q6P2C8 and related entries	1 ± 0.025	1.02 ± 0.037
CEP350 (UniProt Q5VT06)	0.9721 ± 0.009	0.969 ± 0.018
UniProt Q6ICG6 and related entries	1.01 ± 0.045	1 ± 0.054
UniProt Q66PJ3 and related entries	1.01 ± 0.043	1.02 ± 0.047
GLT8D1 (UniProt Q68CQ7)	1.025 ± 0.0057	1.012 ± 0.0043
CENPQ (UniProt Q7L2Z9)	1.02 ± 0.018	0.987 ± 0.05
UniProt Q6GYQ0 and related entries	0.985 ± 0.025	0.962 ± 0.034
UniProt Q6RFH5 and related entries	1 ± 0.017	1 ± 0.025

Target	NP40-soluble protein abundance (concentration: 0.1mM)	NP40-soluble protein abundance (concentration: 0.5mM)
UniProt Q6RI45 and related entries	1.02 ± 0.034	1.01 ± 0.011
UniProt Q6P087 and related entries	0.987 ± 0.021	0.991 ± 0.034
RINT1 (UniProt Q6NUQ1)	0.958 ± 0.038	0.9988 ± 0.0029
CEP135 (UniProt Q66GS9)	0.976 ± 0.028	0.942 ± 0.038
UniProt Q6UWP7 and related entries	1.01 ± 0.03	0.991 ± 0.057
THOC7 (UniProt Q6I9Y2)	1.17 ± 0.038	1.25 ± 0.051
TMED8 (UniProt Q6PL24)	1.02 ± 0.019	1.01 ± 0.012
UniProt Q6KC79 and related entries	0.989 ± 0.023	1.02 ± 0.031
UniProt Q7L2H7	1.01 ± 0.032	1.03 ± 0.05
UniProt Q68CZ6	1 ± 0.046	0.999 ± 0.027
Q5VV87 and related entries (UniProt O14880)	0.978 ± 0.045	0.983 ± 0.036
UniProt Q7L5N7 and related entries	1.01 ± 0.013	1.02 ± 0.025
UniProt Q7Z3K3 and related entries	1.01 ± 0.011	1.021 ± 0.0081
UniProt Q5VT52 and related entries	0.99 ± 0.025	1.01 ± 0.042
DYM (UniProt Q7RTS9)	1.018 ± 0.0075	0.994 ± 0.014
ANKRD54 (UniProt Q6NXT1)	0.974 ± 0.041	0.962 ± 0.013
MED13L (UniProt Q71F56)	1.01 ± 0.028	1.01 ± 0.025
UniProt Q641Q2 and related entries	1.008 ± 0.0072	1.04 ± 0.088
UniProt Q6ZSZ5	0.989 ± 0.023	1.02 ± 0.072
UniProt Q6ZMG9 and related entries	1 ± 0.038	1.02 ± 0.035
UniProt Q68D10 and related entries	0.9796 ± 0.0022	1.02 ± 0.031
UniProt Q7Z434 and related entries	0.988 ± 0.014	0.98 ± 0.018
UniProt Q7RTV0	1.02 ± 0.083	1.03 ± 0.056
UniProt Q7L523	1.07 ± 0.029	1.05 ± 0.03

Target	NP40-soluble protein abundance (concentration: 0.1mM)	NP40-soluble protein abundance (concentration: 0.5mM)
UniProt Q6QNY1 and related entries	0.988 ± 0.034	0.984 ± 0.031
APBB1IP (UniProt Q7Z5R6)	1 ± 0.034	0.974 ± 0.019
UniProt Q6IE81 and related entries	1.01 ± 0.042	1.02 ± 0.027
UniProt Q7Z3U7 and related entries	0.994 ± 0.067	0.992 ± 0.053
ERAP2 (UniProt Q6P179)	1 ± 0.057	1.01 ± 0.062
UniProt Q7L0J3 and related entries	1.03 ± 0.028	0.972 ± 0.013
UniProt Q6ZNW5	0.991 ± 0.026	0.984 ± 0.037
DCAF15 (UniProt Q66K64)	1.02 ± 0.04	1.02 ± 0.044
UniProt Q6P4A7 and related entries	1.001 ± 0.0085	0.9859 ± 0.0064
PMF1 (UniProt Q6P1K2)	0.971 ± 0.068	0.963 ± 0.064
Q76L82 and related entries (UniProt Q8IXJ9+Q76L82)	0.978 ± 0.015	1 ± 0.024
MEPCE (UniProt Q7L2J0)	1 ± 0.021	1.03 ± 0.064
ABHD13 (UniProt Q7L211)	1.0032 ± 0.00013	1 ± 0.027
NXN (UniProt Q6DKJ4)	1 ± 0.027	0.9985 ± 0.0053
UniProt Q6UX04	0.969 ± 0.026	1.03 ± 0.065
UniProt Q7L9L4	1.03 ± 0.057	1.05 ± 0.075
FASTKD5 (UniProt Q7L8L6)	0.9842 ± 0.0066	0.971 ± 0.012
REEP3 (UniProt Q6NUK4)	0.988 ± 0.029	1 ± 0.048
FAM117B (UniProt Q6P1L5)	0.997 ± 0.023	0.989 ± 0.018
UniProt Q7L266 and related entries	0.976 ± 0.041	0.996 ± 0.04
UniProt Q6PIW4 and related entries	0.9764 ± 0.0044	0.966 ± 0.018
UniProt Q7L8W6	1.01 ± 0.039	0.98 ± 0.045
UniProt Q6P1X6 and related entries	1 ± 0.016	1.03 ± 0.023
UniProt Q6ZWJ1 and related entries	0.971 ± 0.028	0.996 ± 0.032

Target	NP40-soluble protein abundance (concentration: 0.1mM)	NP40-soluble protein abundance (concentration: 0.5mM)
UniProt Q7L099-2|Q7L099-3|Q7L099-4	0.978 ± 0.034	0.983 ± 0.042
UniProt Q7Z5G4 and related entries	1.05 ± 0.0075	1 ± 0.048
UniProt Q6ZVM7 and related entries	0.983 ± 0.042	0.983 ± 0.033
UniProt Q7Z2Z2	1.011 ± 0.0082	1.014 ± 0.0078
ADNP2 (UniProt Q6IQ32)	1.01 ± 0.024	0.979 ± 0.042
UniProt Q7Z5J4 and related entries	0.989 ± 0.029	0.997 ± 0.014
UniProt Q712K3	0.999 ± 0.046	1.04 ± 0.094
UniProt Q7L4P6 and related entries	1.01 ± 0.1	1.14 ± 0.23
MBLAC2 (UniProt Q68D91)	1 ± 0.047	0.994 ± 0.061
FAHD1 (UniProt Q6P587)	0.987 ± 0.018	0.983 ± 0.013
UniProt Q6UB98 and related entries	1 ± 0.023	1 ± 0.056
TRIM65 (UniProt Q6PJ69)	1.029 ± 0.0085	1 ± 0.029
UniProt Q5VW32 and related entries	1.01 ± 0.069	0.992 ± 0.042
UniProt Q7Z5K2-2|Q7Z5K2-3|Q7Z5K2	0.975 ± 0.012	1 ± 0.039
HEATR6 (UniProt Q6AI08)	1.01 ± 0.038	1.02 ± 0.022
UniProt Q7Z6B0 and related entries	0.997 ± 0.012	1.02 ± 0.073
UniProt Q6P3S6 and related entries	0.991 ± 0.011	1.01 ± 0.047
RPL7L1 (UniProt Q6DKI1)	0.99 ± 0.035	0.956 ± 0.038
UniProt Q6P6C2 and related entries	1.04 ± 0.059	1.04 ± 0.067
UniProt Q6P996 and related entries	1 ± 0.013	1 ± 0.016
FBXO38 (UniProt Q6PIJ6)	0.988 ± 0.017	0.979 ± 0.034
UniProt Q6N043 and related entries	1.01 ± 0.012	1.036 ± 0.01
UniProt Q7KZ85 and related entries	1 ± 0.043	0.982 ± 0.046
UniProt Q6PII5-2|B4DED4	0.982 ± 0.028	0.986 ± 0.021

Target	NP40-soluble protein abundance (concentration: 0.1mM)	NP40-soluble protein abundance (concentration: 0.5mM)
UniProt Q5VTB9 and related entries	0.984 ± 0.037	1.02 ± 0.022
UniProt Q6ZRI6 and related entries	1 ± 0.0051	0.9868 ± 0.007
LARP1 (UniProt Q6PKG0)	0.986 ± 0.033	0.996 ± 0.045
UniProt Q6FI81 and related entries	0.966 ± 0.07	1.01 ± 0.063
OGFOD2 (UniProt Q6N063)	0.99 ± 0.076	0.943 ± 0.055
NFXL1 (UniProt Q6ZNB6)	0.973 ± 0.047	0.948 ± 0.013
PACS1 (UniProt Q6VY07)	0.999 ± 0.026	0.997 ± 0.021
UniProt Q6N069	1 ± 0.13	0.885 ± 0.18
CHMP1B (UniProt Q7LBR1)	0.969 ± 0.046	1.03 ± 0.083
UniProt Q6DHV7 and related entries	1 ± 0.026	1.01 ± 0.012
HEATR3 (UniProt Q7Z4Q2)	1.02 ± 0.016	1.01 ± 0.014
UniProt Q5VST6	1.03 ± 0.088	1.02 ± 0.072
TAF2 (UniProt Q6P1X5)	1 ± 0.018	0.978 ± 0.038
UniProt Q7Z412 and related entries	1.03 ± 0.023	1.03 ± 0.011
SLC27A4 (UniProt Q6P1M0)	1.01 ± 0.016	0.9959 ± 0.0083
UniProt Q6PHR2 and related entries	0.984 ± 0.035	1 ± 0.021
UniProt Q6SJ93 and related entries	0.972 ± 0.022	0.947 ± 0.015
HSDL2 (UniProt Q6YN16)	0.9704 ± 0.0053	0.988 ± 0.021
Q5VYH9 and related entries (UniProt Q9HBG7)	1 ± 0.055	0.976 ± 0.022
UniProt Q66K74 and related entries	1.005 ± 0.0053	1.03 ± 0.023
UniProt Q6PJG6	0.969 ± 0.087	0.983 ± 0.046
UniProt Q6PI47	0.926 ± 0.059	0.879 ± 0.07
UniProt Q6UXB8 and related entries	1.02 ± 0.038	1.03 ± 0.047
UniProt Q7L0Y3	0.997 ± 0.024	1.01 ± 0.015

Part of the list above, with each value named:
SDHAF4 (UniProt Q5VUM1)
  NP40-soluble protein abundance (concentration: 0.1mM): 0.985 ± 0.028
  NP40-soluble protein abundance (concentration: 0.5mM): 0.9811 ± 0.0076
DHRS11 (UniProt Q6UWP2)
  NP40-soluble protein abundance (concentration: 0.1mM): 1.01 ± 0.016
  NP40-soluble protein abundance (concentration: 0.5mM): 1.01 ± 0.022
UniProt Q659A1
  NP40-soluble protein abundance (concentration: 0.1mM): 0.999 ± 0.012
  NP40-soluble protein abundance (concentration: 0.5mM): 1.01 ± 0.037
UniProt Q7Z2T5
  NP40-soluble protein abundance (concentration: 0.1mM): 1.02 ± 0.03
  NP40-soluble protein abundance (concentration: 0.5mM): 1.02 ± 0.029
